In patent publication US20090275634A1 (priority 2006, published 2009):
At least one compound was matched to its structure with a doubt left.

Test system: TNBS-induced colitis
Parameters: species or system BALB/C mice
Details: mouse, in vivo

C[C@@H]1C[C@H]2[C@@H]3CCC4=CC(=O)C=C[C@]4(C)[C@@]3(F)[C@@H](O)C[C@]2(C)[C@@]1(O)C(=O)CO [Dexamethasone]
histology of the colon (villi structure, FIG. 4): capable of restoring the villi structure of the colon
